Measured values published in publication doi:10.1101/2023.12.05.570080.

T1: MBD4, 2xStrep-HA-6xHis tagged (Arabidopsis thaliana) (UniProt Q9LYB9)
T1 sequence: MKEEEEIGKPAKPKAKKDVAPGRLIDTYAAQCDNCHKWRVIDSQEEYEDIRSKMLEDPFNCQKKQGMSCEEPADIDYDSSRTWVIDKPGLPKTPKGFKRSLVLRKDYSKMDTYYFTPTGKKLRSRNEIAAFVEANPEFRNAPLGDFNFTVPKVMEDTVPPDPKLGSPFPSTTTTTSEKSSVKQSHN

T2: MBD1, 2xStrep-HA-6xHis tagged (Arabidopsis thaliana) (UniProt Q5XEN5)
T2 sequence: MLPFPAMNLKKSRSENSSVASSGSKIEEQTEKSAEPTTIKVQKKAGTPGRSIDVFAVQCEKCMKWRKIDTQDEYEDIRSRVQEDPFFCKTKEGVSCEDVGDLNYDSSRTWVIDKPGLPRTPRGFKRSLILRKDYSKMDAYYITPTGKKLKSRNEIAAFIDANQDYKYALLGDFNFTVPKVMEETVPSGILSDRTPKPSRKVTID

B1: HAT3.1 (protein, UniProt Q04996 1-723)
chain: MYKAVSKRVTRSSGSGLKQTNVDNGGEISPTVDRVSEQGKSSEAGSHMPTDANGNGHLHHEIMDHGKGNEEQKPTPQTVKKDSNTNTKFSGSHRELVIGLPCRGQFEIHNRSRASTSSKRLGGGGERNVLFASHKRAQRSKEDAGPSSVVANSTPVGRPKKKNKTMNKGQVREDDEYTRIKKKLRYFLNRINYEQSLIDAYSLEGWKGSSLEKIRPEKELERATKEILRRKLKIRDLFQHLDTLCAEGSLPESLFDTDGEISSEDIFCAKCGSKDLSVDNDIILCDGFCDRGFHQYCLEPPLRKEDIPPDDEGWLCPGCDCKDDSLDLLNDSLGTKFSVSDSWEKIFPEAAAALVGGGQNLDCDLPSDDSDDEEYDPDCLNDNENDEDGSDDNEESENEDGSSDETEFTSASDEMIESFKEGKDIMKDVMALPSDDSEDDDYDPDAPTCDDDKESSNSDCTSDTEDLETSFKGDETNQQAEDTPLEDPGRQTSQLQGDAILESDVGLDDGPAGVSRRRNVERLDYKKLYDEEYDNVPTSSSDDDDWDKTARMGKEDSESEDEGDTVPLKQSSNAEDHTSKKLIRKSKRADKKDTLEMPQEGPGENGGSGEIEKSSSSACKQTDPKTQRLYISFQENQYPDKATKESLAKELQMTVKQVNNWFKHRRWSINSKPLVSEENVEKLKTGKEGECETSVAGSSKQTMETESVAEKPTNTGSRKRRRK
B2: HUA2 (protein, UniProt Q9XER9 1-1392)
chain: MAPGRKRGASKAKAKGQLVLGDLVLAKVKGFPAWPAKISRPEDWDRAPDPKKYFVQFFGTEEIAFVAPPDIQAFTSEAKSKLLARCQGKTVKYFAQAVEQICTAFEGLQNHKSNALGDEDSLDATEPGLTKAEIVDGTDHIVIESERTDNFNFRVDPCFPKLDENNGEERKAEIRKLDSSSFLESKVKTTSPVSESLEHSSFDPKIKKEDFDKGTDGSACNEHFGNGQKKLANGKRIKKEAGGSDRKGEDTVHRDKSNNSHVPGGRTASGNSDSKKSKGLLTEKTSSKVSADKHENSPGIKVGVSGKKRRLESEQGKLAPRVDESSRAAKKPRCESADNKVKCEIDDGSDSTGTVSDIKREIVLGLGARGGNFQYDKEAVAYTKRQRQTMEHATSPSFSGSRDKSGKGHLEQKDRSSPVRNVKAPAAQSLKKRRAVCIYDEDDDEDPKTPLHGKPAIVPQAASVLTDGPKRANVCHSTSTKAKISAGSTESTEVRKFPLRKHCEDASRVLPSNAENSTNSLPVVKPINELPPKDVKQILQSPKMSPQLVLTNKHVAGQHKVVKSSVKVSGVVMAKKPQSDSCKEAVAGSDKISSSQSQPANQRHKSASVGERLTVVSKAASRLNDSGSRDMSEDLSAAMLDLNREKGSATFTSAKTPDSAASMKDLIAAAQAKRKLAHTQNSIFGNLNPSFLSISDTQGRSHSPFMVQNASASAAISMPLVVQGHHQQGSSPSNHGHQSLSRNQIETDDNEERRLSSGHKSVGGSLSCSTEAAISRDAFEGMLETLSRTRESIGRATRLAIDCAKYGLASEVVELLIRKLESESHFHRKVDLFFLVDSITQHSHSQKGIAGASYVPTVQAALPRLLGAAAPPGTGASDNRRKCLKVLKLWLERKVFPESLLRRYIDDIRASGDDATGGFSLRRPSRSERAVDDPIREMEGMLVDEYGSNATFQLPGFFSSHNFEDDEEDDDLPTSQKEKSTSAGERVSALDDLEIHDTSSDKCHRVLEDVDHELEMEDVSGQRKDVAPSSFCENKTKEQSLDVMEPVAEKSTEFNPLPEDSPPLPQESPPPLPPLPPSPPPPSPPLPPSSLPPPPPAALFPPLPPPPSQPPPPPLSPPPSPPPPPPPPSQSLTTQLSIASHHQIPFQPGFPPPTYPLSHQTYPGSMQQDRSSIFTGDQIVQGPGNSSRGGLVEGAGKPEYFVQQSSSFSPAGVCSSREPSSFTSSRQLEFGNSDVLFNPEASSQNHRFQPSTPLSQRPMVRLPSAPSSHFSYPSHIQSQSQHSYTHPYPFPPQRDDARRYRNEEPWRIPSSGHSAENQNGAWIHGRNSHPGLPRVTDSFFRPPPERPPSGTMNYQPSAASNLQAVPAIPGHTAPQMLPSRPDIPTVNCWRPA
B3: UBN1 (protein, UniProt Q8RX78 1-684)
chain: MSEVNEMSGGSIGGELLRASPKVLTAGDRKLLKVELRPGDTTYVSWKKLMRDAGKVNGLSASVPDPPPNANPNLEFRIAPGHPVEIETNEQPHSNRFNAVIEKIERLYKGNDSSDGEELDGAPDDDEYDTEDSFIDDAELDEYFEVDNSTVKHDGFYVNRGKLERMEPSTTSNQQPKKRRRKDSAKPCRDAVDVSDKHTKLSITARKKDQSTAPGSWKTQESPLPSGAQDANTSVPLDDVKHSDRANHQSRNDTSHKSRETGSSSALHQKYSNKSLHQQSTSLLGKSPPNVFAEVTVVRQKENNGMHQLANVTGSRQSSQASKKDGSNVKSKTSILEKAIRELEKVVVESRPPAITENQEADTSSQAVKRRLPRDVKLKLAKVARIAQASQGKHSTELINRLMSIVGHLIQLRSLKRNLKIMIDMGDSATREKDTRFKQINNEVLDMIKAKVSLMESQAIKPEGATSDDFQDSVEKPSLKKFVMDAALEDKLCDLYDIFIDGLDEDQGPQTKKLYVNLAELWPNRLMDYRGIKHAIFRAKERRKALYGNLAKEMDQTKMKKSMKQLVPRTDCTAQPNTELVVQRQHSGEKKLIVDPNATSTSVVTSQTMVDRSNQQQPEKLKGISSSCNPTEETRVVKRKNEAVMAEKQVVLALKKPEHPQTRVIPAPQNLNIPRTTPDLNLPS
B4: HIRA (protein, UniProt Q9LXN4 1-1024)
chain: MIAEKPFWVKHEGLQIFSIDVQPNGERFATGGGDHKVRIWNMKSVDKDLQNIDTKERLLATLRDHFGSVNCVRWAKNSRYVASGSDDQVIQIHERKPGSGTTEFGSGEAPDVENWKAVMTLRGHTADVVDLNWSPDDSMLASGSLDNTVHIWNMRTGMCTTVLRGHLSLVKGVTWDPIGSFIASQSDDKTVIIWRTSDWGMAHRTDGHWAKSLGSTFFRRLGWSPCGHFLTTTHGFQKPKHSAPVLERGEWSVAYDFLGHSAPIIVVRFNHSMFKRIPSSTHETKQVGWSNGTSKSGEKDLQSYNVIAMGSQDRTITVWTTGSARPLFVAKHFFGQSVVDLSWSPDGYSLFACSLDGTVAMIHFDPKELGVRLTDTELDELKKSRYGDVRGRQANLVESPAQLLLETASTKQAGSKRAASDVQQNQVTTKPSVSVESTAKRRKSQVDDRNKAAESTGQTLNKASTLNRVSSPVNQKVYRRPDGRKRIIPEAVGVPQQENNIMINGESHNFLPASAAAPAKGDSGDFPVEISNRDLSGKEIVCRNPDLKERSRITARATITESLVIEKVPGTSGRDGVLNVEQSVGIKESSSTDLLIRVFDWKDGEAAPPVCLEACPREHALDTVGAVSTSMVKETEISCKKSGETLWSDRIMGRVTVLAGNPNFWAAGCEDGSLQVYTKCGRRAMPTMMMGSAATFIDCDDSWKLLLVTRKGSLYVWDLFNRKCVLHDSLSSLVSSDVNLSSTVKGTIKVISVKLSKSGSPLVVLATRHAFLFDTSLMCWLRVADDCFPASNFSSSWNLGSAPCGELAGLQVDVRKYMARKPGWNRITDDGTQTRAHLESQLASSLALESPNEYRQCLLAYVRFLAREADESRLREVCESFLGPPTGMAEAASSDTNLSWDPYVLGVKKHKLLRNDILPAMASNRKVQRLLNEFIDLLSEYEDVETADPAPKGSTPTMNCGGVPSSLDQIGSDPPAMTATTPMTIDNDKPVSLENPAALDIGVCEKTGSEDRDKQDQNSRDSGS
B5: UBN2 (protein, UniProt F4I700 1-717)
chain: MEDEPKLPTDDGPTFNESCKISSEILTAGDRKLLKVELLKEETTLVSWKKLMDEASKENGGLFVSAPERLLNANPNLEFRLAPGAQTENEMVNQPHPNRLNSVIAKIERLYMGKDGSDGEELDGAPDDDDYDTEDSFIDDAELDEYFEVDNSPIKHDGFFVNRGKLERIEPSATSNQQQPKKRRRKESAKPCGDVVDVSRKRAKMAKTAGGKDQSASPGPSSKKISNDSKTVQDSFSPLKAQNGNDSLVLENVKHTDKANHQPMNATSPKSKAAGSSGPLHPKCSSKSVHEQSNSPPGKSRPNVSAKSAVVRQQVNNGMPDLDIATESKTSIQISKKSGSNGRPKYSTLEKAIRNLEKLVAESRPPAATENQDADISSQAVKRGLPGDVKLHLAKVARIAYASQGEISGELINRLMGIVGHLIQIRSLKRNLKIMIDSIVTANREKDTRFQRIKSEITEMLKTQVPLVESQETNQEAGTSDDFQDVGSLGKSPVKKFVMDVALEEKLCDLYDVFVEGMDEHSGSQIRKLYSDLAQLWPNSLVDNHEIRRAICREKERRRALEGNIGKEMDQTKITKKKQTQLVPKSEGITYPDKTSGVEVKASVVLTATTTSLVDCQPAADSSFERSKQQHEKLKRTSSLSNPAAEGKKVRRKTEPALEETHLPAEKPLVLALKRQTHLKSKTHKQVQVHPQSKAHKQAQVHPKAKTQTPPDLNLPS

target: T1, MBD4, 2xStrep-HA-6xHis tagged (Arabidopsis thaliana); experiment: affinity purification with mass spectrometry

binding | Binder
binds | B1
binds | B2

target: T2, MBD1, 2xStrep-HA-6xHis tagged (Arabidopsis thaliana); experiment: affinity purification with mass spectrometry

binding | Binder
binds | B1
binds | B2
binds | B3

target: T2, MBD1, 2xStrep-HA-6xHis tagged (Arabidopsis thaliana); experiment: affinity purification with mass spectrometry; remark: another data set of the same source

binding | Binder
binds | B1
binds | B4
binds | B5
binds | B2
binds | B3

Results are given in words; binding and its absence hold for the method and conditions named. Binding seen in cells or lysates may run through a third protein. A yes stands for co-enrichment or nearness to the bait. Other partners may have been found. Where a sequence is shown, tags or fusion partners need not be part of it.
